Results deposited as PubChem BioAssay AID1508588 (Peter MacCallum Cancer Centre, 2020).

Screen: 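Which gene losses make BRAF-mutant melanoma cells more responsive to vemurafenib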 (primary screen)
Cells: human WM266.4 melanoma cells (BRAF V600 mutant)
Knock-down reagent: siRNA pool against human genes, 40 nM
Time to read-out: 96 h from transfection to read-out
Challenge: vemurafenib 300 nM (about IC25), added 48 h after transfection, for 48 h; comparison arm got DMSO vehicle only
Detection: 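Cell gain (DAPI nuclei at end minus before drug, mean of two replicates) and medium lactate by absorbance per cell, both as ratio to non-targeting siRNA, also grouped into fold-change classes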
Reading the numbers: cell gain with vemurafenib: higher = more cell gain than with non-targeting siRNA; lactate per cell with vemurafenib: higher = more lactate made per cell
Active means: 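a knock-down counts as enhancing when its fold-change classes with vehicle and with vemurafenib, taken together, show a stronger drug effect on cell gain or lactate per cell; exact class pairs not stated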
Meaning of the calls: active = enhances vemurafenib effect; inactive = no enhancement seen
This is a random part of about 18,000 reagents tested. 790 of them (4.4%) were called active. 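Calls rest on a combination of fold-change classes in drug and vehicle arms, not all shown here.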 Unmarked entries are inactive.

gene | cell gain with vemurafenib | lactate per cell with vemurafenib
USP10 | 0.45 | 0.52
MMGT1 | 0.34 | 0.62
H3C11 | 0.38 | 1.69
MOGAT3 | 1.26 | 0.34
IL12RB1 | 0.67 | 1.34
CCR6 | -0.06 | 2.14
APCDD1L | 0.08 | 2.28
CEP192 | 0.24 (active) | 0.45
ATP6V0A4 | 0.61 | 0.76
UGT1A3 | 1.1 | 0.49
RAPGEF1 | 0.51 | 1.15
FAM217A | 0.66 | 0.88
HEXD | 0.59 | 1.76
CSF3 | 0.63 | 1.02
ZNF740 | 0.87 | 0.64
KPNB1 | 0.13 | 0.91
SSBP2 | 0.47 | 0.83
OR8D4 | 0.68 | 1.33
LYPD1 | 0.55 | 1.19
TXN | 0.44 | 1.9
PHF19 | 1.03 | 0.95
RAB11A | 0.8 | 0.85
PLXNB1 | 0.55 | 1.58
AQP9 | 0.3 | 1.42
MID1IP1 | 0.26 | 1.32
INKA1 | 0.31 | 1.04
SEC61B | 0.09 | 1.33
NOMO3 | 0.97 | 0.5
ZBED3 | 0.84 | 0.73
GAGE6 | 0.37 | 0.53
SH2D1A | 0.76 | 1.03
SON | 0 | 2.38
KRTAP2-4 | 0.67 (active) | 0.46
MCHR1 | 0.56 | 0.55
COX5A | 1.02 | 1.21
SLC6A11 | 0.62 | 0.99
PALLD | 0.8 | 0.77
HNRNPH2 | 0.9 | 0.82
CEND1 | 0.48 | 1.27
GPC6 | 0.19 | -0.01
MTCL3 | 0.88 | 0.7
RTN1 | 0.61 | 1.08
PRXL2A | 0.52 | 0.97
PDE1C | 0.78 | 0.68
CDIN1 | 0.22 | 1.01
FOXP2 | 0.83 | 0.45
CNPY4 | 0.34 | 2.76
INAVA | 0.52 | 0.98
SUFU | 0.24 | 1.68
FKBP14 | 1.19 | 1.12
CLCA3P | 0.74 | 0.58
WDR76 | 0.95 | 1.01
ZFAND5 | 0.99 | 0.9
SAP30L | 0.44 | 1.03
SLC12A1 | 0.2 | 0.92
TAF7L | 0.43 | 1.79
CRYBG2 | 0.26 | 0.72
NT5C2 | 0.85 | 1.11
BBS7 | 0.36 | 0.88
INTS15 | 0.49 | 2.66
RCN3 | 0.16 | 1.43
HTR1D | 0.43 | 0.72
PTAFR | 0.46 | 0.76
XRCC5 | 1.05 | 0.5
KMT2D | 1.14 | 0.77
ST3GAL4 | 0.47 | 1.14
SNAP23 | 1.02 | 0.2
ALOX5 | 0.67 | 0.57
ZNF502 | 0.23 | 1.44
TTF2 | 0.4 | 1.33
SEMA3C | 0.08 | 0.73
PAQR3 | 0.71 | 0.68
MRFAP1L1 | 0.5 | 0.72
TMC8 | 0.94 | 0.49
QRFP | 0.61 | 1.66
PCDHGA7 | 0.7 | 1.34
MACROH2A2 | 0.33 | 1.15
TRIM51 | 0.54 | 1.76
CRYBA4 | 0.54 | 0.8
OR6C65 | 0.72 | 1.3
CLDND1 | 0.64 (active) | 0.68
CCDC15 | 0.24 | 2.02
ARFIP2 | 0.61 | 0.62
PKD1 | 0.49 | 1.38

Targets listed so far whose target name starts with H or h:
gene | cell gain with vemurafenib | lactate per cell with vemurafenib
H3C11 | 0.38 | 1.69
HEXD | 0.59 | 1.76
HNRNPH2 | 0.9 | 0.82
HTR1D | 0.43 | 0.72
